# Assay results published in the antibiotic and cytotoxicity screens of Wong et al. (2023).
# This list holds what a sample rich in hits left over.
# How the values were obtained:
# HSkMC = human skeletal muscle cells; test: cytotoxicity call (relative viability < 0.9); conditions: 10 µM
# HepG2 = test: cytotoxicity call (relative viability < 0.9); conditions: 10 µM
Compound,cytotoxicity call (HSkMC),cytotoxicity call (HepG2)
O=C(O)C1=C[C@@H](O)[C@@H](O)[C@H](O)C1,inactive,inactive
O=C(c1ccccc1)c1ccccc1,inactive,inactive
O=C(O)C1=C[C@@H](O)[C@H](O)[C@H](O)C1,inactive,inactive
O=C(O)C1=CC(O)C(O)C(O)C1 (stereo not drawn),inactive,inactive
